Article doi:10.1101/2024.07.02.601773

Molecular target: fAKAP350 (N-terminally 3×FLAG-tagged full-length AKAP350A) (human)
Assay: affinity purification with mass spectrometry

binding | Binder
binds | THEMIS (protein, UniProt Q8N1K5 1-641) MALSLEEFVHSLDLRTLPRVLEIQAGIYLEGSIYEMFGNECCFSTGEVIKITGLKVKKIIAEICEQIEGCESLQPFELPMNFPGLFKIVADKTPYLTMEEITRTIHIGPSRLGHPCFYHQKDIKLENLIIKQGEQIMLNSVEEIDGEIMVSCAVARNHQTHSFNLPLSQEGEFYECEDERIYTLKEIVEWKIPKNRTRTVNLTDFSNKWDSTNPFPKDFYGTLILKPVYEIQGVMKFRKDIIRILPSLDVEVKDITDSYDANWFLQLLSTEDLFEMTSKEFPIVTEVIEAPEGNHLPQSILQPGKTIVIHKKYQASRILASEIRSNFPKRHFLIPTSYKGKFKRRPREFPTAYDLEIAKSEKEPLHVVATKAFHSPHDKLSSVSVGDQFLVHQSETTEVLCEGIKKVVNVLACEKILKKSYEAALLPLYMEGGFVEVIHDKKQYPISELCKQFRLPFNVKVSVRDLSIEEDVLAATPGLQLEEDITDSYLLISDFANPTECWEIPVGRLNMTVQLVSNFSRDAEPFLVRTLVEEITEEQYYMMRRYESSASHPPPRPPKHPSVEETKLTLLTLAEERTVDLPKSPKRHHVDITKKLHPNQAGLDSKVLIGSQNDLVDEEKERSNRGATAIAETFKNEKHQK
binds | MCM10 (protein, UniProt Q7L590 1-875) MDEEEDNLSLLTALLEENESALDCNSEENNFLTRENGEPDAFDELFDADGDGESYTEEADDGETGETRDEKENLATLFGDMEDLTDEEEVPASQSTENRVLPAPAPRREKTNEELQEELRNLQEQMKALQEQLKVTTIKQTASPARLQKSPVEKSPRPPLKERRVQRIQESTCFSAELDVPALPRTKRVARTPKASPPDPKSSSSRMTSAPSQPLQTISRNKPSGITRGQIVGTPGSSGETTQPICVEAFSGLRLRRPRVSSTEMNKKMTGRKLIRLSQIKEKMAREKLEEIDWVTFGVILKKVTPQSVNSGKTFSIWKLNDLRDLTQCVSLFLFGEVHKALWKTEQGTVVGILNANPMKPKDGSEEVCLSIDHPQKVLIMGEALDLGTCKAKKKNGEPCTQTVNLRDCEYCQYHVQAQYKKLSAKRADLQSTFSGGRIPKKFARRGTSLKERLCQDGFYYGGVSSASYAASIAAAVAPKKKIQTTLSNLVVKGTNLIIQETRQKLGIPQKSLSCSEEFKELMDLPTCGARNLKQHLAKATASGIMGSPKPAIKSISASALLKQQKQRMLEMRRRKSEEIQKRFLQSSSEVESPAVPSSSRQPPAQPPRTGSEFPRLEGAPATMTPKLGRGVLEGDDVLFYDESPPPRPKLSALAEAKKLAAITKLRAKGQVLTKTNPNSIKKKQKDPQDILEVKERVEKNTMFSSQAEDELEPARKKRREQLAYLESEEFQKILKAKSKHTGILKEAEAEMQERYFEPLVKKEQMEEKMRNIREVKCRVVTCKTCAYTHFKLLETCVSEQHEYHWHDGVKRFFKCPCGNRSISLDRLPNKHCSNCGLYKWERDGMLKEKTGPKIGGETLLPRGEEHAKFLNSLK
binds | INPPL1 (protein, UniProt O15357 1-1258) MASACGAPGPGGALGSQAPSWYHRDLSRAAAEELLARAGRDGSFLVRDSESVAGAFALCVLYQKHVHTYRILPDGEDFLAVQTSQGVPVRRFQTLGELIGLYAQPNQGLVCALLLPVEGEREPDPPDDRDASDGEDEKPPLPPRSGSTSISAPTGPSSPLPAPETPTAPAAESAPNGLSTVSHDYLKGSYGLDLEAVRGGASHLPHLTRTLATSCRRLHSEVDKVLSGLEILSKVFDQQSSPMVTRLLQQQNLPQTGEQELESLVLKLSVLKDFLSGIQKKALKALQDMSSTAPPAPQPSTRKAKTIPVQAFEVKLDVTLGDLTKIGKSQKFTLSVDVEGGRLVLLRRQRDSQEDWTTFTHDRIRQLIKSQRVQNKLGVVFEKEKDRTQRKDFIFVSARKREAFCQLLQLMKNKHSKQDEPDMISVFIGTWNMGSVPPPKNVTSWFTSKGLGKTLDEVTVTIPHDIYVFGTQENSVGDREWLDLLRGGLKELTDLDYRPIAMQSLWNIKVAVLVKPEHENRISHVSTSSVKTGIANTLGNKGAVGVSFMFNGTSFGFVNCHLTSGNEKTARRNQNYLDILRLLSLGDRQLNAFDISLRFTHLFWFGDLNYRLDMDIQEILNYISRKEFEPLLRVDQLNLEREKHKVFLRFSEEEISFPPTYRYERGSRDTYAWHKQKPTGVRTNVPSWCDRILWKSYPETHIICNSYGCTDDIVTSDHSPVFGTFEVGVTSQFISKKGLSKTSDQAYIEFESIEAIVKTASRTKFFIEFYSTCLEEYKKSFENDAQSSDNINFLKVQWSSRQLPTLKPILADIEYLQDQHLLLTVKSMDGYESYGECVVALKSMIGSTAQQFLTFLSHRGEETGNIRGSMKVRVPTERLGTRERLYEWISIDKDEAGAKSKAPSVSRGSQEPRSGSRKPAFTEASCPLSRLFEEPEKPPPTGRPPAPPRAAPREEPLTPRLKPEGAPEPEGVAAPPPKNSFNNPAYYVLEGVPHQLLPPEPPSPARAPVPSATKNKVAITVPAPQLGHHRHPRVGEGSSSDEESGGTLPPPDFPPPPLPDSAIFLPPSLDPLPGPVVRGRGGAEARGPPPPKAHPRPPLPPGPSPASTFLGEVASGDDRSCSVLQMAKTLSEVDYAPAGPARSALLPGPLELQPPRGLPSDYGRPLSFPPPRIRESIQEDLAEEAPCLQGGRASGLGEAGMSAWLRAIGLERYEEGLVHNGWDDLEFLSDITEEDLEEAGVQDPAHKRLLLDTLQLSK

These are yes or no findings as the source states them, for the method shown. Binding seen in cells or lysates may run through a third protein. Here binding means that the protein was enriched with, or labelled near, the bait; the list need not be complete.
